From publication PMC9751115
No constants are given. Whether binding was seen depends on the method and setting. Binding seen in cells or lysates may run through a third protein. Some entries that bind do so weakly or less than the wild type.

Sequences of proteins named here, by UniProt entry; tags and fusion partners are left off. A change or cut given only in a name is not applied to a line headed by its entry. Residues count along the entry.
UniProt Q9BXM7, 78-581: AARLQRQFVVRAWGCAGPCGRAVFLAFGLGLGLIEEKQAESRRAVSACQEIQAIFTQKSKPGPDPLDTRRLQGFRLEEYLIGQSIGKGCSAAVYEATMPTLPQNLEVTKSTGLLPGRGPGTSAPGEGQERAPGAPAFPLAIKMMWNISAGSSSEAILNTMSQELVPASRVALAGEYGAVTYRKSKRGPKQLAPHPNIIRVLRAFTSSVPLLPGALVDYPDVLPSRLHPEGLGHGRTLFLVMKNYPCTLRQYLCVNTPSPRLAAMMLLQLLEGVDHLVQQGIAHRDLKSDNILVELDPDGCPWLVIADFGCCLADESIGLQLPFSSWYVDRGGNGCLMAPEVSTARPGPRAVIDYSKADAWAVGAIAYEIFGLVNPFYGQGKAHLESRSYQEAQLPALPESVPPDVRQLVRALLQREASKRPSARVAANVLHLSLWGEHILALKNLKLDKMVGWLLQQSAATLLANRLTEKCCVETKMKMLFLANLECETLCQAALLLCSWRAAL
UniProt P61586, whole entry, looked up, stated change not applied: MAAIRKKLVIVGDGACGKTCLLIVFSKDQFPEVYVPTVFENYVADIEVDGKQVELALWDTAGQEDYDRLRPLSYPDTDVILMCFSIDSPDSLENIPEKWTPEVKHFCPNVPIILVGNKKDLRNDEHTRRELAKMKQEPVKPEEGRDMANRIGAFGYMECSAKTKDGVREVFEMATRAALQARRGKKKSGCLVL

Tests used:
[1] = molecular target: miniSOG-tagged PINK1 (msPINK1) (UniProt Q9BXM7); test: co-IP; mitochondrial fractions of NRVMs expressing RhoA with msPINK1; HA or miniSOG immunoprecipitated; WB for HA and miniSOG
[2] = molecular target: miniSOG-tagged PINK1 (msPINK1) (UniProt Q9BXM7); test: co-IP; whole cell lysates of NRVMs co-expressing msPINK1 with GFP or HA-L63RhoA; 1 % digitonin buffer (20 mM Tris HCl pH 7.2, 50 mM KCl, 1 mM MgCl2); HA or miniSOG antibody on Dynabeads, 4 °C overnight; WB for HA and miniSOG
[3] = molecular target: hemagglutinin (HA)-tagged active mutant of RhoA (L63RhoA), expressed in neonatal rat ventricular myocytes (UniProt P61586); test: co-IP; mitochondrial fractions of NRVMs expressing RhoA with msPINK1; HA or miniSOG immunoprecipitated; WB for HA and miniSOG
[4] = molecular target: hemagglutinin (HA)-tagged active mutant of RhoA (L63RhoA), expressed in neonatal rat ventricular myocytes (UniProt P61586); test: co-IP; whole cell lysates of NRVMs co-expressing msPINK1 with GFP or HA-L63RhoA; 1 % digitonin buffer (20 mM Tris HCl pH 7.2, 50 mM KCl, 1 mM MgCl2); HA or miniSOG antibody on Dynabeads, 4 °C overnight; WB for HA and miniSOG

Row | Substance | binding [1] | binding [2] | binding [3] | binding [4]
1 | hemagglutinin (HA)-tagged active mutant of RhoA (L63RhoA), expressed in neonatal rat ventricular myocytes (from UniProt P61586 1-193) | binds | binds |  | 
2 | miniSOG-tagged PINK1 (msPINK1) (from UniProt Q9BXM7 78-581) |  |  | binds | binds
